Laboratory results as given in patent US20260263357A1, “PHASE SHIFTING INTRAVITREAL TAMPONADE” (Avant Sciences, Inc., priority 2023, published 2026).

Test system: New Zealand white rabbits
Assay: Fundus imaging of tamponade bubble after injection into rabbit vitreous cavity (phase shift and removal)
Assay type: in vivo
Conditions: 8 microliters injected into rabbit vitreous cavity
Protocol: The biological safety of a compound of Structure 1 is tested within an animal model. In particular, 2,2,2-Trifluoroethyl 1,1,2,2-tetrafluoroethyl ether was tested within a New Zealand white rabbits, an animal model in line with previous retinal tamponade studies (Santos et al., Retina, 33 (1): p 120-127 (1991)).
(§1) FIG. 1A includes a set of control retinal fundus images (near-infrared images IR and corresponding color images MC) for which balanced salt solution BSS (effectively water) was injected into a rabbit vitreous cavity. […] In other words, 2,2,2-Trifluoroethyl 1,1,2,2-tetrafluoroethyl ether was empirically determined to successfully phase shift under biological conditions at around 1 week post placement, and then subsequently carried out of the body over the next 2 months. […]
as §1, with “6A” for “1A”, “1,1,2,3,3,3-Hexafluoropropyl difluoromethyl” for “2,2,2-Trifluoroethyl 1,1,2,2-tetrafluoroethyl”, “1-3 days” for “1 week”, “subsequently fully” for “subsequently”, “by Day 8.” for “over the next 2 months.”

| SMILES | Time to phase shift (liquid to gas) under biological conditions post placement (fundus images to D30) | Time to phase shift (liquid to gas) under biological conditions post placement (fundus images to D56) |
| --- | --- | --- |
| FC(F)OC(F)(F)C(F)C(F)(F)F (centres unmarked) [1,1,2,3,3,3-Hexafluoropropyl difluoromethyl ether] | 1-3 days |  |
| FC(F)C(F)(F)OCC(F)(F)F [2,2,2-Trifluoroethyl 1,1,2,2-tetrafluoroethyl ether] |  | around 1 week |
